Experimental data as given in article doi:10.1101/2025.02.28.640839.
These are yes or no findings as the source states them, for the method shown. Binding can be weak; no strength is given.

Biological target: Protein Disulfide Isomerase (human (endogenous in A549, HT29, U251))
Assay: drug resin affinity chromatography

B1: ALDH1A1 (protein, UniProt P00352 1-501)
chain: MSSSGTPDLPVLLTDLKIQYTKIFINNEWHDSVSGKKFPVFNPATEEELCQVEEGDKEDVDKAVKAARQAFQIGSPWRTMDASERGRLLYKLADLIERDRLLLATMESMNGGKLYSNAYLNDLAGCIKTLRYCAGWADKIQGRTIPIDGNFFTYTRHEPIGVCGQIIPWNFPLVMLIWKIGPALSCGNTVVVKPAEQTPLTALHVASLIKEAGFPPGVVNIVPGYGPTAGAAISSHMDIDKVAFTGSTEVGKLIKEAAGKSNLKRVTLELGGKSPCIVLADADLDNAVEFAHHGVFYHQGQCCIAASRIFVEESIYDEFVRRSVERAKKYILGNPLTPGVTQGPQIDKEQYDKILDLIESGKKEGAKLECGGGPWGNKGYFVQPTVFSNVTDEMRIAKEEIFGPVQQIMKFKSLDDVIKRANNTFYGLSAGVFTKDIDKAITISSALQAGTVWVNCYGVVSAQCPFGGFKMSGNGRELGEYGFHEYTEVKTVTVKISQKNS
For B1, the binding was “binds”.
